According to PubChem BioAssay AID206 (DTP/NCI, 2004):
The list shows only some results of the screen, not a fair sample: it is rich in T/C values a quarter to a half above the control, in often repeated tests (any T/C) and in doses without a T/C. Other doses and runs of a compound stand elsewhere. T/C gives the treated animals as a percentage of the vehicle group. Schedules are NCI's codes, read here as Q, the interval in days (D) or hours (H), X, the number of doses. Some entries were tested several times; the results are listed from low to high. Some T/C values are followed by the survivors on the day toxicity was checked, most often the fifth; where none is given, no animal had died by that day. Some T/C values are negative: the treated tumours shrank. Some entries give survivors of the animals treated and no T/C: the source files T/C as zero there, which appears to mark a toxic dose or a test without result, not a measured value. Survivors were counted at the toxicity check, usually on the fifth day, unless a day is given; later deaths do not show.

System: nude mice, HT29 intrarenal xenograft, tumor weight T/C
Assay: NCI In Vivo Anticancer Drug Screen. Data for tumor model HT29;CX-1 Human Adenocarcinoma (MER+) (intrarenal inoculation) in NU/NU Swiss (nude) mice
Conditions: T/C endpoint: mean tumor weight change, higher T/C = larger tumour
How it was run: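 Compounds were given to mice carrying transplantable tumors; a vehicle-dosed group served as control. The endpoint measured in each group was compared as a T/C quotient.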

[1] = dose: 100.0 mg/kg/injection, schedule: Q04DX004 (sc), vehicle: saline with Tween-80, evaluated on day 15
[2] = dose: 400.0 mg/kg/injection, schedule: Q01DX010 (sc), vehicle: saline
[3] = dose: 200.0 mg/kg/injection, schedule: Q01DX010 (sc), vehicle: saline
[4] = dose: 600.0 mg/kg/injection, schedule: Q04DX004 (sc), vehicle: Klucel (hydroxypropylcellulose) (HPC), evaluated on day 15
[5] = dose: 1200.0 mg/kg/injection, schedule: Q04DX004 (sc), vehicle: Klucel (hydroxypropylcellulose) (HPC)

CO[C@H]1C[C@](C)(O)Cc2cc3c(c(O)c21)C(=O)c1c(O)cc2c(c1C3=O)O[C@@H]1O[C@@]2(C)[C@H](O)[C@@H](N(C)C)[C@@H]1O
T/C (dose: 100.0 mg/kg/injection, schedule: Q04DX004 (sc), vehicle: other, evaluated on day 15): 132 % of control | T/C (dose: 200.0 mg/kg/injection, schedule: Q04DX004 (sc), vehicle: other, evaluated on day 15): 134 % of control | T/C (dose: 400.0 mg/kg/injection, schedule: Q04DX004 (sc), vehicle: other, evaluated on day 15): 135 % of control [2 of 3 alive on day 15]

ClC1=C(Cl)C(Cl)=C(Cl)C1=Cc1ccccc1
T/C (dose: 25.0 mg/kg/injection, schedule: Q04DX004 (sc), vehicle: saline with Tween-80, evaluated on day 15): 131 % of control | T/C [1]: 125 % of control | T/C (dose: 200.0 mg/kg/injection, schedule: Q04DX004 (sc), vehicle: saline with Tween-80, evaluated on day 15): 131 % of control

COc1cc2cc(c1Cl)N(C)C(=O)CC(OC(=O)CC(C)C)C1(C)OC1C(C)C1CC(O)(NC(=O)O1)C(OC)/C=C/C=C(C)C2 (stereo not given)
T/C (dose: 125.0 micrograms/kg/injection, schedule: Q04DX004 (sc), vehicle: saline + alcohol, evaluated on day 15): 135 % of control | survivor count (dose: 500.0 micrograms/kg/injection, schedule: Q04DX004 (sc), vehicle: saline + alcohol): 0 of 6 on day 15 and 3 of 6 on day 15

CC(=O)NC(CCc1ccc(Cl)c(Cl)c1)c1cccc(O)c(=O)c1 (stereo not given)
T/C (dose: 400.0 mg/kg/injection, schedule: Q04DX004 (sc), vehicle: Klucel (hydroxypropylcellulose) (HPC), evaluated on day 15): 129 % of control

ClCCCN1CCN(CCCCl)CC1
survivor count (dose: 250.0 mg/kg/injection, schedule: Q04DX004 (sc), vehicle: distilled water + alcohol): 3 of 6 on day 15 | survivor count (dose: 500.0 mg/kg/injection, schedule: Q04DX004 (sc), vehicle: distilled water + alcohol): 0 of 6 on day 15

CCCCOC(=O)/C=C(\Br)C(=O)OCCCC
survivor count (dose: 1000.0 mg/kg/injection, schedule: Q04DX004 (sc), vehicle: saline with Tween-80): 1 of 5 on day 15

CC(C)=CCNc1ncnc2c1ncn2C1OC(CO)C(O)C1O (stereo not given)
T/C (dose: 200.0 mg/kg/injection, schedule: Q04DX004 (sc), vehicle: suspension in saline, evaluated on day 15): 125 % of control | survivor count (dose: 800.0 mg/kg/injection, schedule: Q04DX004 (sc), vehicle: suspension in saline): 0 of 6 on day 15 | survivor count (dose: 1600.0 mg/kg/injection, schedule: Q04DX004 (sc), vehicle: suspension in saline): 0 of 6 on day 15

Cc1cc(SCC(=O)c2ccc(Br)cc2)cc(C)[o+]1
survivor count [2]: 1 of 3 on day 11 | survivor count (dose: 800.0 mg/kg/injection, schedule: Q01DX010 (sc), vehicle: saline): 1 of 3 on day 11

C=C1C(=O)OCC1C(=O)O (stereo not given)
survivor count (dose: 400.0 mg/kg/injection, schedule: Q04DX004 (sc), vehicle: suspension in saline): 0 of 6 on day 15

COc1cc2cc3c4cc(OC)c(OC)cc4cc[n+]3c(C)c2cc1OC (tested in a mixture with another compound)
survivor count [3]: 0 of 3 on day 11 | survivor count [2]: 0 of 3 on day 11

Cc1cc(NS(=O)(=O)c2ccc(N=Nc3cc(N=Nc4ccc(S(=O)(=O)Nc5cc(C)nc(C)n5)cc4)c4c(NC(=O)C(Cl)Cl)cccc4c3OC(=O)C(Cl)Cl)cc2)nc(C)n1 (tested in a mixture with another compound)
T/C (dose: 300.0 mg/kg/injection, schedule: Q04DX004 (sc), vehicle: suspension in saline, evaluated on day 15): 130 % of control | T/C (dose: 600.0 mg/kg/injection, schedule: Q04DX004 (sc), vehicle: suspension in saline, evaluated on day 15): 146 % of control

O=C1c2ccccc2C(=O)c2c(NCCNCCO)ccc(NCCNCCO)c21
T/C (dose: 4.0 mg/kg/injection, schedule: Q01DX010 (sc), vehicle: water, evaluated on day 11): 29, 40, 66, 70 % of control | T/C (dose: 8.0 mg/kg/injection, schedule: Q01DX010 (sc), vehicle: water, evaluated on day 11): -34 [2 of 2 alive on day 11], 20 [2 of 3 alive on day 11], 59, 60 % of control | T/C (dose: 16.0 mg/kg/injection, schedule: Q01DX010 (sc), vehicle: water, evaluated on day 11): -13, 19 [2 of 3 alive on day 11], 59 % of control | survivor count (dose: 16.0 mg/kg/injection, schedule: Q01DX010 (sc), vehicle: water): 0 of 3 on day 11 | survivor count (dose: 32.0 mg/kg/injection, schedule: Q01DX010 (sc), vehicle: water): 0 of 3 on day 11 and 1 of 6 on day 11

C[C@@](O)(/C=C/[C@H]1CC=CC(=O)O1)[C@@H](C[C@@H](O)\C=C/C=C\C=C\CO)OP(=O)(O)O
survivor count (dose: 75.0 mg/kg/injection, schedule: Q04DX004 (sc), vehicle: saline): 0 of 6 on day 15

CN1CCN(CCCN2c3ccccc3Sc3ccc(C(F)(F)F)cc32)CC1
T/C (dose: 50.0 mg/kg/injection, schedule: Q01DX010 (sc), vehicle: saline, evaluated on day 11): 55, 67, 105 % of control | T/C (dose: 100.0 mg/kg/injection, schedule: Q01DX010 (sc), vehicle: saline, evaluated on day 11): 74, 75, 87 % of control | survivor count (dose: 100.0 mg/kg/injection, schedule: Q01DX010 (sc), vehicle: saline): 1 of 3 on day 11 | T/C (dose: 200.0 mg/kg/injection, schedule: Q01DX010 (sc), vehicle: saline, evaluated on day 11): 17 [2 of 2 alive on day 11], 21, 35 % of control | survivor count [3]: 3 of 5 on day 11 | survivor count [2]: 0 of 3 on day 11, 0 of 6 on day 11, 1 of 6 on day 11

CCN(CC)CCCNc1nccc2c(C)c3[nH]c4ccncc4c3cc12
survivor count (dose: 20.0 mg/kg/injection, schedule: Q01DX010 (sc), vehicle: other): 1 of 3 on day 11

CC(C)(C)N1CC1CNC(=O)C(=O)NCC1CN1C(C)(C)C (stereo not given)
survivor count (dose: 50.0 mg/kg/injection, schedule: Q04DX004 (sc), vehicle: saline with Tween-80): 0 of 6 on day 15 | survivor count (dose: 100.0 mg/kg/injection, schedule: Q04DX004 (sc), vehicle: saline with Tween-80): 0 of 6 on day 15 | survivor count (dose: 200.0 mg/kg/injection, schedule: Q04DX004 (sc), vehicle: saline with Tween-80): 0 of 6 on day 15

C1OCN2CSCC12 (stereo not given)
survivor count (dose: 800.0 mg/kg/injection, schedule: Q04DX004 (sc), vehicle: saline with Tween-80): 0 of 6 on day 15

Cc1cc(N(CCOS(C)(=O)=O)CCOS(C)(=O)=O)ccc1C=Nc1ccc(-c2nc(Cc3ccccc3)sc2C)cc1
survivor count (dose: 400.0 mg/kg/injection, schedule: Q01DX010 (sc), vehicle: Klucel (hydroxypropylcellulose) (HPC)): 1 of 3 on day 11

CC(=O)[C@]1(O)Cc2c(O)c3c(c(O)c2[C@@H](OC2CC(N)C(O)C(C)O2)C1)C(=O)c1c(O)cccc1C3=O (stereo not given in full)
survivor count (dose: 2.5 mg/kg/injection, schedule: Q04DX004 (sc), vehicle: saline): 1 of 3 on day 20 | survivor count (dose: 5.0 mg/kg/injection, schedule: Q04DX004 (sc), vehicle: saline): 0 of 3 on day 20

CC1(C)OC1CS(=O)c1ccccc1 (stereo not given)
T/C [1]: 130 % of control [4 of 6 alive on day 15]

O=C(N/N=C\c1cc(Br)cc(Br)c1O)N/N=C/c1cc(Br)cc(Br)c1O
T/C (dose: 50.0 mg/kg/injection, schedule: Q01DX010 (sc), vehicle: saline with Tween-80, evaluated on day 11): 128 % of control

COC1C(CO)OC(n2cnc3c(=S)nc(N)[nH]c32)C1O (stereo not given)
T/C (dose: 300.0 mg/kg/injection, schedule: Q04DX004 (sc), vehicle: Klucel (hydroxypropylcellulose) (HPC), evaluated on day 15): 144 % of control | T/C [4]: 144 % of control [5 of 6 alive on day 15] | survivor count [5]: 0 of 5 on day 15

O=C(O)CSc1c(Cl)c(=O)oc2ccc(Cl)cc12
T/C [4]: 141 % of control | survivor count [5]: 3 of 6 on day 15 | survivor count (dose: 2400.0 mg/kg/injection, schedule: Q04DX004 (sc), vehicle: Klucel (hydroxypropylcellulose) (HPC)): 0 of 5 on day 15

Nc1ccc(C(OC(=O)c2cc3ccccc3c(Cc3c(O)c(C(=O)OC(c4ccc(N)cc4)(c4ccc(N)cc4)c4ccc(N)cc4)cc4ccccc34)c2O)(c2ccc(N)cc2)c2ccc(N)cc2)cc1
T/C (dose: 18.0 mg/kg/injection, schedule: Q04DX004 (sc), vehicle: saline with Tween-80, evaluated on day 15): 135 % of control | survivor count (dose: 600.0 mg/kg/injection, schedule: Q04DX004 (sc), vehicle: saline with Tween-80): 1 of 6 on day 15

O=C1C(NCCO)=C(N2CC2)C(=O)C(NCCO)=C1N1CC1
survivor count (dose: 4.0 mg/kg/injection, schedule: Q04DX004 (sc), vehicle: saline): 3 of 6 on day 15 | survivor count (dose: 6.0 mg/kg/injection, schedule: Q04DX004 (sc), vehicle: saline): 0 of 6 on day 15 | survivor count (dose: 12.0 mg/kg/injection, schedule: Q04DX004 (sc), vehicle: saline): 0 of 6 on day 15
